Laboratory results from PubChem BioAssay AID2685 (National Center for Advancing Translational Sciences (NCATS), 2010).
Some of the results follow. Shown are side measurements of this screen, not its main read-out; they come without a call. Most of these compounds were active or inconclusive in the main read-out, so they are no random draw. The note in brackets gives the kind of curve behind each potency; many fits are weak.

Assay: qHTS Assay for Lipid Storage Modulators in Drosophila S3 Cells;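 on cell number change: cells counted by Cell Tracker Red CMTPX staining in the red channel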
Conditions: BODIPY lipid droplet fluorescence, 18-24 h; for cell number change: measured here: cell count max response, cells fed with added oleic acid
In short: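 Laser-scanning cytometry quantifies lipid droplet accumulation (500–530 nm total intensity; droplet/cell object ratio) in oleic acid-fed (400 uM added) Drosophila S3 cells treated with a concentration series. 20 uM Triacsin C defined 100% inhibition.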

[1] = measured here: lipid fluorescence (Fed channel) AC50, cells fed with added oleic acid
[2] = measured here: cell number channel AC50, cells fed with added oleic acid

SMILES | cell number change [%] | AC50 [1] | AC50 [2]
CCc1nc2ccc(C(=O)N3CCN(c4cc(C)ccc4C)CC3)cc2nc1CC | 18 |  | 
Cc1nc2ccc(S(=O)(=O)N(C)CC(=O)NCc3ccc4c(c3)OCO4)cc2s1 | 0.807 | 11.6 µM [rising, partial curve] | 
Cc1cc(C)c(C#N)c(SCC(=O)CC(=O)OC(C)C)n1 | 28 |  | 
Cc1cccc(C)c1NC(=O)CSc1nnc([C@@H]2CCCN2C(=O)OC(C)(C)C)o1 | 0.37 |  | 
CCOc1ccc(CCNC(=O)c2cc3sccc3n2CC)cc1OCC |  | 1.3 µM [falling, full curve] | 1.3 µM [falling, full curve]
Cc1nc2c(-c3ccc(F)cc3)c(C)nn2c(N2CCOCC2)c1C | -31.5 | 23.1 µM [falling, partial curve] | 16.4 µM [falling, partial curve, poor fit]
CCn1c(O)c(/C=N/n2cnnc2)sc1=S | -11.3 | 20.6 µM [falling, single point] | 
CN(c1ccc(C(=O)NCCSC(C)(C)C)cc1)S(=O)(=O)c1ccccc1 | -36.4 | 29.1 µM [falling, single point] | 23.1 µM [falling, single point]
CCOC(=O)CSc1nnc(CSc2nc3ccccc3c(=O)[nH]2)n1-c1ccccc1 | 5.61 | 1.03 µM [falling, full curve, poor fit] | 
O=C(/C=C/c1cccnc1)c1ccc(F)c(F)c1 |  | 11.6 µM [falling, single point] | 
COc1ccc(C2Nc3ccccc3C(=O)N2NS(=O)(=O)c2ccc(C)cc2)c(OC)c1 (centres undefined) | 6.67 |  | 
O=C(CCN1C(=O)/C(=C\c2cccs2)SC1=S)NC1=NCCS1 | 12.5 | 0.164 µM [falling, full curve] | 
COc1ccc(Nc2nc3ccc(C)cn3c(=O)c2/C=N/O)cc1 |  | 0.116 µM [rising, partial curve, poor fit] | 0.092 µM [rising, full curve]
CCN(CC)C(=O)CSc1nc2c(sc(=S)n2-c2ccccc2)c(=O)n1-c1ccc(OC)c(OC)c1 | -21.3 | 6.51 µM [rising, single point] | 
O=C(Cc1coc2ccc3ccccc3c12)Nc1nnc(C2CC2)s1 | -13.1 | 6.51 µM [falling, single point] | 
O=C(COC(=O)c1cccnc1Nc1cccc(C(F)(F)F)c1)NCCN1C(=O)CSC1=O | -24.1 | 29.1 µM [rising, single point] | 
O=C(CSc1n[nH]c(=O)[nH]c1=O)NC1CCCCC1 | 5.99 | 6.51 µM [rising, single point] | 
CC1CCCCN1C(=O)CSc1nnc(-c2cccnc2)n1C1CCCCC1 (centres undefined) | 6.95 |  | 
O=C(NNc1nc2ccccc2s1)C1CC1 | 189 | 20.6 µM [rising, partial curve] | 29.1 µM [rising, partial curve, poor fit]

Retrieved by compound from the list above, five records:
SMILES | cell number change [%] | AC50 [1] | AC50 [2]
CCn1c(O)c(/C=N/n2cnnc2)sc1=S | -11.3 | 20.6 µM [falling, single point] | 
O=C(/C=C/c1cccnc1)c1ccc(F)c(F)c1 |  | 11.6 µM [falling, single point] | 
CC1CCCCN1C(=O)CSc1nnc(-c2cccnc2)n1C1CCCCC1 (centres undefined) | 6.95 |  | 
Cc1cc(C)c(C#N)c(SCC(=O)CC(=O)OC(C)C)n1 | 28 |  | 
Cc1nc2ccc(S(=O)(=O)N(C)CC(=O)NCc3ccc4c(c3)OCO4)cc2s1 | 0.807 | 11.6 µM [rising, partial curve] | 

Continued.

SMILES | cell number change [%] | AC50 [1] | AC50 [2]
COc1ccc(S(=O)(=O)N(C)CC(=O)NC2CCCC2)cc1OC | -0.166 |  | 
OCCNc1nc(Nc2ccccc2)nc(Nc2ccccc2)n1 | 19.1 | 29.1 µM [rising, single point] | 
CN(O)/C=N/C(=S)Nc1ccc(Cl)cc1Cl | -11.5 | 4.11 µM [falling, single point] | 
CC(C)NC(=O)Cc1ccc(Br)cc1 | -48.6 | 29.1 µM [falling, single point] | 6.51 µM [falling, partial curve, poor fit]
O=C(COC(=O)CCc1nc2ccccc2s1)Nc1nc(-c2ccccc2)cs1 | -48.6 | 6.51 µM [falling, partial curve] | 29.1 µM [falling, partial curve, poor fit]
CCOc1ncccc1C(=O)Nc1nnc(C(CC)CC)s1 |  |  | 0.00461 µM [falling, full curve, poor fit]
C=CCN(CC=C)S(=O)(=O)c1ccc(NC(=S)NC(=O)/C=C/c2ccc(C)cc2)cc1 |  | 20.6 µM [rising, single point] | 0.366 µM [rising, full curve, poor fit]
CCCCN(Cc1nc2ccccc2c(=O)[nH]1)C(=O)CN1C(=O)NC2(CCCCC2)C1=O | 1.71 | 32.6 µM [rising, single point] | 
COc1cc(Br)c(/C=C/c2ccc3cccc(O)c3n2)cc1OC | -11.7 | 18.4 µM [falling, single point] | 
Cc1cccc(NC(=O)c2cccc(NS(=O)(=O)c3ccc(Cl)cc3)c2)c1 | -0.959 |  | 
Cc1cc(NC(=O)c2cnn3cccnc23)n(-c2ccccc2)n1 |  | 0.58 µM [rising, single point] | 1.3 µM [rising, full curve]
O=C(CSCc1ccc(Cl)cc1)Nc1ccc(S(=O)(=O)N2CCOCC2)cc1 | -28.2 | 5.8 µM [falling, partial curve] | 
CCOC(=O)c1cc(-c2ccccc2)nc2c1c(C)nn2-c1ccccn1 | 10.4 | 0.411 µM [rising, partial curve, poor fit] | 0.146 µM [rising, full curve]
C=CCn1c(O)c(CN2CCOCC2)c(C)c(C#N)c1=O | 30.4 | 29.1 µM [falling, single point] | 1.64 µM [rising, single point]
O=C(NN1CC(=O)N(c2cc(Cl)cc(Cl)c2)CC1=O)c1cccs1 | -42.4 | 0.651 µM [falling, single point] | 16.4 µM [falling, partial curve]
Cc1ccc(Cn2c(-n3nc(C)cc3C)nc3c2c(=O)[nH]c(=O)n3C)cc1 |  |  | 0.00461 µM [rising, full curve, poor fit]
O=C(NCc1ccco1)c1ccc2ccccc2c1 |  | 2.31 µM [falling, partial curve] | 
COc1ccccc1NC(=O)CSc1ccc(-c2ccco2)nn1 | 9.25 | 0.517 µM [rising, full curve, poor fit] | 
[O-][n+]1ccccc1SCc1ccccc1 | 2.97 | 0.731 µM [falling, full curve] | 

SMILES | cell number change [%] | AC50 [1] | AC50 [2]
O=C(O)CSCC(=O)Nc1cccc(C(F)(F)F)c1 | -35.1 | 3.66 µM [falling, full curve] | 0.731 µM [falling, full curve]
COc1ccc(OC)c(-c2csc(NC(=O)CSc3ccc([N+](=O)[O-])cc3)n2)c1 | -6.26 | 9.2 µM [rising, partial curve] | 
S=C(Nc1cccc(Cl)c1)NC1CCCCC1 | 8.97 | 2.31 µM [rising, partial curve] | 
c1cncc(-c2nc(N3CCOCC3)c3c4c(sc3n2)CCC4)c1 | 36.6 | 11.6 µM [rising, partial curve, poor fit] | 0.116 µM [rising, full curve, poor fit]
Cn1c(-c2ccncc2)nc2ccccc21 | 10.6 |  | 
O=C(NCc1cccnc1)C1CCCCN1S(=O)(=O)c1ccc(F)cc1 (centres undefined) | -25.6 | 32.6 µM [falling, single point] | 
Cc1ccc(OCC(=O)N/N=C/c2cc([N+](=O)[O-])ccc2N2CCCCC2)cc1 | 6.3 | 1.46 µM [rising, full curve] | 
CN(C)CCN(C(=O)c1ccc2c(c1)OCCO2)c1nc2cc3c(cc2s1)OCO3 | 41.6 | 2.31 µM [rising, full curve] | 4.61 µM [rising, partial curve]
N#Cc1cnc(NN)nc1 | -4.69 |  | 
O=[N+]([O-])c1cc([N+](=O)[O-])c2c(=Nc3ccccc3)n(-c3ccccc3)n(O)c2c1 | -27.7 | 0.116 µM [falling, full curve] | 
CCC(C)NC(=O)CSC1=Nc2ccccc2C2=NC(CC(=O)NCc3ccc(F)cc3)C(=O)N12 (centres undefined) | 2.06 | 0.146 µM [rising, full curve] | 
CCN1C(=O)[C@H]2[C@H]3[C@H](O)[C@H](O)C/C(=N\OC[C@@H](C)[C@H](OCc4ccccc4)C(C)C)[C@@H]3CC[C@H]2C1=O | -46.9 | 29.1 µM [falling, single point] | 29.1 µM [falling, single point]
COc1ccc(NC(=O)Nc2cc3oc4ccccc4c3cc2OC)cc1 | -36.8 | 7.31 µM [falling, partial curve, poor fit] | 7.31 µM [falling, full curve]
O=C(CSc1ccc2nnc(-c3ccccc3)n2n1)NCc1ccc2c(c1)OCO2 |  |  | 2.59 µM [rising, partial curve, poor fit]
CCC(OC(=O)c1ccco1)C(=O)NCc1ccco1 (centres undefined) | -29.1 | 5.8 µM [falling, single point] | 0.184 µM [falling, full curve, poor fit]
COC(=O)c1cc(NC(=O)CC2CCCC2)cc(C(=O)OC)c1 | -16.7 |  | 0.00517 µM [falling, full curve, poor fit]
Cc1sc2nc(COC(=O)c3c(F)cccc3F)[nH]c(=O)c2c1C | 22.6 | 20.6 µM [rising, single point] | 
CS(=O)(=O)Nc1ccc(-c2cc(/C=C3\SC(N)=NC3=O)c[nH]c2=O)cc1 | 24 | 29.1 µM [rising, single point] | 
COc1cc(C2=NC(CO)(CO)CO2)cc(OC)c1OC | -29 | 25.9 µM [falling, single point] | 
